Test results taken from patent US20100041596A1.
Results are given in words; binding and its absence hold for the method and conditions named. Some results given as binding are weak or reduced against the parent protein; the word gives no strength. For some assays here: Tags and fused reporters may be left off the sequences shown.

Assays:
[1] = biological target: T1, native Fas receptor of H9 lymphoma cells (Homo sapiens (Human)), P25445; test: immunoprecipitated Fas signaling complexes of H9 cells after APO-1 or FasL, blot; moderate FADD association after DTSSP alone; settings: remark: other sources report otherwise
T1 chain: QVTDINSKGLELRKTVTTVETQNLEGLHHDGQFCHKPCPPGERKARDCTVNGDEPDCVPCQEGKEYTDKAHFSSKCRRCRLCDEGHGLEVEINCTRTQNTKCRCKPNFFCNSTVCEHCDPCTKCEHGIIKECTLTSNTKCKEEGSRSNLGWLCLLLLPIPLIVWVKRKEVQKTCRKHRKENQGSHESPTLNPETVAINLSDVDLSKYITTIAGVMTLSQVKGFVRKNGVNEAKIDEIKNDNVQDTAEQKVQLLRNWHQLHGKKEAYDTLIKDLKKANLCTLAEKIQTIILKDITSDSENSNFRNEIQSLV

[2] = biological target: T2, Fas fusion proteins with the death domain (CFP and YFP) (Homo sapiens (Human)), P25445; test: flow cytometric FRET, 293T cells; settings: remark: other sources report otherwise
T2 chain: T1 chain

B1: FADD, Q13158 1-208 (protein, UniProt Q13158 1-208, looked up)
chain: MDPFLVLLHSVSSSLSSSELTELKFLCLGRVGKRKLERVQSGLDLFSMLLEQNDLEPGHTELLRELLASLRRHDLLRRVDDFEAGAAAGAAPGEEDLCAAFNVICDNVGKDWRRLARQLKVSDTKIDSIEDRYPRNLTERVRESLRIWKNTEKENATVAHLVGALRSCQMNLVADLVQEVQQARDLQNRSGAMSPMSWNSDASTSEAS
In the case of B1, the binding [1] is reported as “binds”.

B2: Fas fusion proteins with the death domain (CFP and YFP), P25445 26-335 (receptor, not shown: large carriers)
chain: T1 chain
With B2 the binding [2] was “binds”.
